From article PMC10582465

By UniProt entry, the sequences of proteins in these tests, tags left out. Where a name states a change or a piece, a line headed by the entry shows the natural chain unless it says otherwise.
UniProt Q9BRQ8: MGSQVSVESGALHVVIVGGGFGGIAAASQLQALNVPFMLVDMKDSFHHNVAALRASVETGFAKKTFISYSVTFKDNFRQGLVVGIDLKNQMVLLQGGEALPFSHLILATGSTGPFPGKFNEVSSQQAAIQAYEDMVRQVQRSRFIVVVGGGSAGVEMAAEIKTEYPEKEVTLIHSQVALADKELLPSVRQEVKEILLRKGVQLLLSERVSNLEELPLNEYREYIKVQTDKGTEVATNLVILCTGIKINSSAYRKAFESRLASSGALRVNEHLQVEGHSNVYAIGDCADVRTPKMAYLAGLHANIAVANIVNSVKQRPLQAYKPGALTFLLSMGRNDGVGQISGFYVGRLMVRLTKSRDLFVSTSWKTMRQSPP
UniProt P19474: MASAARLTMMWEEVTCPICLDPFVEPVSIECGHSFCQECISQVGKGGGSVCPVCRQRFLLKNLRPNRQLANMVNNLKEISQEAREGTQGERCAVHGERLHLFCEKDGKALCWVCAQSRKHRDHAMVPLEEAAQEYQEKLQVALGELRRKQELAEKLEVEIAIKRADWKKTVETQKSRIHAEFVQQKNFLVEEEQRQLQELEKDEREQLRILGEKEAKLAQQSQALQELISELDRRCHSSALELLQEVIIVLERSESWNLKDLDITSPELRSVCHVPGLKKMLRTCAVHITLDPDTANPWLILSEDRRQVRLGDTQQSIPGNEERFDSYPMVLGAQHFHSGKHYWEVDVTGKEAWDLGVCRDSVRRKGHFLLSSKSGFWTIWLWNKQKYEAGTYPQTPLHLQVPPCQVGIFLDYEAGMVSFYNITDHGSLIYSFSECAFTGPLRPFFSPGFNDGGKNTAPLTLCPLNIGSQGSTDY

Molecular target: GST-FSP1 (human) (UniProt Q9BRQ8)
Assay: pull-down; GST, GST-FSP1 or GST-TRIM21 from bacteria on GST magnetic beads, incubated with cell lysate at 4 °C overnight; 50 mM Tris-HCl pH 7.4, 0.5% NP-40, 1 mM EDTA, 150 mM NaCl; immunoblot; only the target purified

For “TRIM21 of the cell lysate used in the GST pull-down (from UniProt P19474 1-475)”, the binding was “binds”.

Results are given in words; binding and its absence hold for the method and conditions named. Binding seen in cells or lysates may run through a third protein. A result given as binding can be weak or reduced; the word gives no strength.
